# From the supplement of paper PMC6411743
# ± gives the standard deviation of the averaged measurements. The list shows a part of the results.
# Molecular target: T1, UniProt Q9UKW4 and related entries
# T1 sequence (whole entry): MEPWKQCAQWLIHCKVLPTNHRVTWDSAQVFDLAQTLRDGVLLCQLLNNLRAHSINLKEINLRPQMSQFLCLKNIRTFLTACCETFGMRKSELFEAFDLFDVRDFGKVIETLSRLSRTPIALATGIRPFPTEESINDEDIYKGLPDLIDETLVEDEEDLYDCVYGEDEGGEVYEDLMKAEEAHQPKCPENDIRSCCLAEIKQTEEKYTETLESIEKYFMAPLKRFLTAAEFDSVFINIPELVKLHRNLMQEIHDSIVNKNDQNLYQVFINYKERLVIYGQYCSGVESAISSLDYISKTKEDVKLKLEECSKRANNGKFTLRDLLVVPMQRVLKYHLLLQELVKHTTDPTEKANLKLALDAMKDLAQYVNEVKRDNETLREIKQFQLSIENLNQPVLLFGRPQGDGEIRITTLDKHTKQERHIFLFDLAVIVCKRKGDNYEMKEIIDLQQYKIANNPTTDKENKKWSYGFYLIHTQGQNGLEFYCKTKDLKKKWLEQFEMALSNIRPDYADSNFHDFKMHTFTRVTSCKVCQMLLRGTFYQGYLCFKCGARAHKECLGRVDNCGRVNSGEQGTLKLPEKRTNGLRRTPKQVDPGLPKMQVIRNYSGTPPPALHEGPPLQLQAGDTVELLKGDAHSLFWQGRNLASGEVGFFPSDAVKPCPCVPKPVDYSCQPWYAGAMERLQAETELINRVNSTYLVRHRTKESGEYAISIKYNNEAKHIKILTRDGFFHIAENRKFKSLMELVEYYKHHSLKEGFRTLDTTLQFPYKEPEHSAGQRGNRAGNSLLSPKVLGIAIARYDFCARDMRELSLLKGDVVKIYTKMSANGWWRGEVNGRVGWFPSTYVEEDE
# Assay: NP40-soluble protein abundance relative to vehicle (solubility fold change) (ratio); higher = more soluble protein in presence of GTP
# Description: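 Solubility proteome profiling in Jurkat crude lysate. Lysate was treated with Mg-GTP (0.1-10 mM) for 10 min at room temperature and 3 min at 37 °C, then solubilised with 0.8% NP40 and benzonase, followed by ultracentrifugation. Proteins were quantified by TMT10 LC-MS/MS; the value is the NP40-soluble abundance relative to the NP40-processed vehicle, from 3 independent experiments.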
smiles,measurement,setting,value
Nc1nc2c(ncn2[C@@H]2O[C@H](COP(=O)(O)OP(=O)(O)OP(=O)(O)O)[C@@H](O)[C@H]2O)c(=O)[nH]1 [guanosine triphosphate],NP40-soluble protein abundance,concentration: 0.1mM,1.04 ± 0.017
same,NP40-soluble protein abundance,concentration: 0.5mM,1.04 ± 0.053
same,NP40-soluble protein abundance,concentration: 1mM,0.916 ± 0.014
same,NP40-soluble protein abundance,concentration: 2mM,0.928 ± 0.069
same,NP40-soluble protein abundance,concentration: 4mM,0.902 ± 0.053
same,NP40-soluble protein abundance,concentration: 6mM,0.9 ± 0.041
same,NP40-soluble protein abundance,concentration: 8mM,0.869 ± 0.043
same,NP40-soluble protein abundance,concentration: 10mM,0.834 ± 0.084
